Assay results from paper PMC11589570, “Critical assessment of LC3/GABARAP ligands used for degrader development and ligandability of LC3/GABARAP binding pockets” (Nature Communications, 2024).
“And” between values parts separate entries of the source, which are not always exact repeats. Equal entries are not always repeated. This continues a long series; more values of the same kind are listed elsewhere.

Test system: RPE1 cells
Assay: Cell growth assay (IncuCyte confluence over 72 h)
Format: cell-based
In short: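 Phase confluence (% area covered by cells) imaged every 2 h for 72 h after compound addition; cells in DMEM/10% FBS, seeded 24 h before treatment. Controls were 0.1% DMSO, 250 nM Torin1 and 200 ng/mL Bafilomycin (final). Each point averages three wells.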

For Cc1ccc(C)c(S(=O)(=O)Nc2cc(SCC(=O)O)c(O)c3ccccc23)c1 [compound 8], the RPE1 cell growth (100 nM, 14 h, listed as KT1) was 27 and 37 and 19, the RPE1 cell growth (100 nM, 16 h, listed as KT1) was 31 and 39 and 21 and the RPE1 cell growth (100 nM, 18 h, listed as KT1) was 32 and 43 and 22. For the same compound, the RPE1 cell growth (100 nM, 20 h, listed as KT1) was 33 and 47 and 24, the RPE1 cell growth (100 nM, 22 h, listed as KT1) was 33 and 48 and 25 and the RPE1 cell growth (100 nM, 24 h, listed as KT1) was 36 and 54 and 27. For the same compound, the RPE1 cell growth (100 nM, 26 h, listed as KT1) was 41 and 57 and 29, the RPE1 cell growth (100 nM, 30 h, listed as KT1) was 44 and 67 and 35 and the RPE1 cell growth (100 nM, 32 h, listed as KT1) was 50 and 71 and 37. The RPE1 cell growth (100 nM, 34 h, listed as KT1) was 52 and 76 and 42, the RPE1 cell growth (100 nM, 36 h, listed as KT1) was 57 and 80 and 42 and the RPE1 cell growth (100 nM, 38 h, listed as KT1) was 58 and 85 and 47. The RPE1 cell growth (100 nM, 40 h, listed as KT1) was 63 and 88 and 52, the RPE1 cell growth (100 nM, 42 h, listed as KT1) was 67 and 92 and 54 and the RPE1 cell growth (100 nM, 44 h, listed as KT1) was 72 and 95 and 59. For the same compound, the RPE1 cell growth (100 nM, 46 h, listed as KT1) was 73 and 96 and 65, the RPE1 cell growth (100 nM, 48 h, listed as KT1) was 78 and 98 and 67 and the RPE1 cell growth (100 nM, 50 h, listed as KT1) was 82 and 99 and 70. For the same compound, the RPE1 cell growth (100 nM, 52 h, listed as KT1) was 85 and 99 and 78, the RPE1 cell growth (100 nM, 54 h, listed as KT1) was 90 and 100 and 81 and the RPE1 cell growth (100 nM, 56 h, listed as KT1) was 91 and 100 and 85. The RPE1 cell growth (100 nM, 58 h, listed as KT1) was 95 and 100 and 90, the RPE1 cell growth (100 nM, 60 h, listed as KT1) was 97 and 100 and 93 and the RPE1 cell growth (100 nM, 62 h, listed as KT1) was 98 and 100 and 93. For the same compound, the RPE1 cell growth (100 nM, 64 h, listed as KT1) was 99 and 100 and 96, the RPE1 cell growth (100 nM, 66 h, listed as KT1) was 99 and 100 and 98 and the RPE1 cell growth (100 nM, 68 h, listed as KT1) was 100 and 98. The RPE1 cell growth (100 nM, 70 h, listed as KT1) was 100 and 99, the RPE1 cell growth (100 nM, 72 h) was 100 and the RPE1 cell growth (500 nM, 16 h, listed as KT1) was 33 and 48 and 25. For the same compound, the RPE1 cell growth (500 nM, 20 h, listed as KT1) was 35 and 56 and 29, the RPE1 cell growth (500 nM, 22 h, listed as KT1) was 35 and 60 and 30 and the RPE1 cell growth (500 nM, 24 h, listed as KT1) was 39 and 65 and 33. The RPE1 cell growth (500 nM, 30 h, listed as KT1) was 47 and 78 and 40, the RPE1 cell growth (500 nM, 32 h, listed as KT1) was 52 and 82 and 42 and the RPE1 cell growth (500 nM, 34 h, listed as KT1) was 56 and 86 and 46. For the same compound, the RPE1 cell growth (500 nM, 36 h, listed as KT1) was 60 and 90 and 48, the RPE1 cell growth (500 nM, 38 h, listed as KT1) was 65 and 93 and 54 and the RPE1 cell growth (500 nM, 40 h, listed as KT1) was 67 and 95 and 58. For the same compound, the RPE1 cell growth (500 nM, 42 h, listed as KT1) was 72 and 96 and 62, the RPE1 cell growth (500 nM, 44 h, listed as KT1) was 77 and 98 and 66 and the RPE1 cell growth (500 nM, 46 h, listed as KT1) was 80 and 99 and 70. The RPE1 cell growth (500 nM, 48 h, listed as KT1) was 83 and 99 and 76, the RPE1 cell growth (500 nM, 50 h, listed as KT1) was 88 and 100 and 79 and the RPE1 cell growth (500 nM, 52 h, listed as KT1) was 91 and 100 and 84. The RPE1 cell growth (500 nM, 54 h, listed as KT1) was 95 and 100 and 88, the RPE1 cell growth (500 nM, 56 h, listed as KT1) was 96 and 100 and 91 and the RPE1 cell growth (500 nM, 58 h, listed as KT1) was 98 and 100 and 95. The RPE1 cell growth (500 nM, 60 h, listed as KT1) was 99 and 100 and 96, the RPE1 cell growth (500 nM, 62 h, listed as KT1) was 99 and 100 and 97 and the RPE1 cell growth (500 nM, 64 h, listed as KT1) was 100 and 99. For the same compound, the RPE1 cell growth (500 nM, 66 h) was 100, the RPE1 cell growth (500 nM, 68 h) was 100 and the RPE1 cell growth (500 nM, 70 h) was 100. For the same compound, the RPE1 cell growth (500 nM, 72 h) was 100, the RPE1 cell growth (1 uM, 14 h, listed as KT1) was 32 and 41 and the RPE1 cell growth (1 uM, 16 h, listed as KT1) was 30 and 36 and 43. The RPE1 cell growth (1 uM, 18 h, listed as KT1) was 32 and 36 and 49, the RPE1 cell growth (1 uM, 20 h, listed as KT1) was 34 and 39 and 51 and the RPE1 cell growth (1 uM, 22 h, listed as KT1) was 37 and 39 and 54. For the same compound, the RPE1 cell growth (1 uM, 24 h, listed as KT1) was 40 and 43 and 59, the RPE1 cell growth (1 uM, 26 h, listed as KT1) was 42 and 46 and 63 and the RPE1 cell growth (1 uM, 28 h, listed as KT1) was 47 and 49 and 69. For the same compound, the RPE1 cell growth (1 uM, 30 h, listed as KT1) was 49 and 52 and 74, the RPE1 cell growth (1 uM, 32 h, listed as KT1) was 54 and 56 and 78 and the RPE1 cell growth (1 uM, 34 h, listed as KT1) was 58 and 61 and 80. For the same compound, the RPE1 cell growth (1 uM, 36 h, listed as KT1) was 61 and 65 and 85, the RPE1 cell growth (1 uM, 38 h, listed as KT1) was 66 and 68 and 88 and the RPE1 cell growth (1 uM, 40 h, listed as KT1) was 71 and 91. For the same compound, the RPE1 cell growth (1 uM, 42 h, listed as KT1) was 75 and 77 and 94, the RPE1 cell growth (1 uM, 44 h, listed as KT1) was 79 and 80 and 96 and the RPE1 cell growth (1 uM, 46 h, listed as KT1) was 85 and 83 and 97. The RPE1 cell growth (1 uM, 48 h, listed as KT1) was 88 and 98, the RPE1 cell growth (1 uM, 50 h, listed as KT1) was 91 and 90 and 99 and the RPE1 cell growth (1 uM, 52 h, listed as KT1) was 93 and 92 and 99. For the same compound, the RPE1 cell growth (1 uM, 54 h, listed as KT1) was 96 and 100, the RPE1 cell growth (1 uM, 56 h, listed as KT1) was 98 and 97 and 100 and the RPE1 cell growth (1 uM, 58 h, listed as KT1) was 99 and 100. For the same compound, the RPE1 cell growth (1 uM, 60 h, listed as KT1) was 99 and 100, the RPE1 cell growth (1 uM, 62 h, listed as KT1) was 99 and 100 and the RPE1 cell growth (1 uM, 64 h) was 100. The RPE1 cell growth (1 uM, 66 h) was 100, the RPE1 cell growth (1 uM, 68 h) was 100 and the RPE1 cell growth (1 uM, 70 h) was 100. The RPE1 cell growth (1 uM, 72 h) was 100 and the RPE1 cell growth (3 uM, 16 h, listed as KT1) was 34 and 44 and 32.
